{"source": "PubChem BioAssay AID1259254 (NCATS, 2017)", "screen": "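Finding genes that stop cells copying their DNA twice in one cycle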 (primary screen)", "system": "human HCT116 colorectal cancer cells", "reagent": "single siRNA against human genes", "time to read-out": "3 days", "detection": "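Nuclei stained with Hoechst and imaged; cell-cycle phase assigned by DNA content; G2 share scaled per plate, non-targeting siRNA 0%, GMNN siRNA 100%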", "scale": "G2 robust z-score and G2 cells, % of GMNN control: higher = more G2 cells, more excess DNA replication", "active means": "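An siRNA counts as active if its G2 robust z-score lies at least 5 MADs above the screen median; here such calls match roughly 38% of GMNN control or more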", "note": "This is a random part of about 59,000 deposited reagents. About 1,550 of all reagents (2.6%) were called active. 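G2 share is only a proxy for re-replication; each gene was hit by three separate siRNAs, and active genes were retested.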 Unmarked entries are inactive. The numbers tell different reagents against one gene apart. Further read-outs or replicates are left out here. Not stated in the record: the amount of reagent."}
{"Target gene": "ZNF518B", "siRNA no.": 1, "G2 robust z-score": -0.321, "G2 cells, % of GMNN control": 0.706}
{"Target gene": "ZNF518B", "siRNA no.": 2, "G2 robust z-score": -0.164, "G2 cells, % of GMNN control": 1.81}
{"Target gene": "ZNF518B", "siRNA no.": 3, "G2 robust z-score": 0.107, "G2 cells, % of GMNN control": 3.72}
{"Target gene": "ANKRD36", "siRNA no.": 1, "G2 robust z-score": -1.26, "G2 cells, % of GMNN control": -5.91}
{"Target gene": "ANKRD36", "siRNA no.": 2, "G2 robust z-score": -1.01, "G2 cells, % of GMNN control": -4.12}
{"Target gene": "ANKRD36", "siRNA no.": 3, "G2 robust z-score": 2.24, "G2 cells, % of GMNN control": 18.7}
{"Target gene": "PSMD4", "siRNA no.": 1, "G2 robust z-score": 4.04, "G2 cells, % of GMNN control": 31.4}
{"Target gene": "PSMD4", "siRNA no.": 2, "G2 robust z-score": -0.275, "G2 cells, % of GMNN control": 1.04}
{"Target gene": "PSMD4", "siRNA no.": 3, "G2 robust z-score": 2.35, "G2 cells, % of GMNN control": 19.5}
{"Target gene": "SORBS3", "siRNA no.": 1, "G2 robust z-score": 3.01, "G2 cells, % of GMNN control": 24.2}
{"Target gene": "SORBS3", "siRNA no.": 2, "G2 robust z-score": -0.84, "G2 cells, % of GMNN control": -2.94}
{"Target gene": "SORBS3", "siRNA no.": 3, "G2 robust z-score": -0.828, "G2 cells, % of GMNN control": -2.86}
{"Target gene": "PTGER3", "siRNA no.": 1, "G2 robust z-score": 0.23, "G2 cells, % of GMNN control": 4.59}
{"Target gene": "PTGER3", "siRNA no.": 2, "G2 robust z-score": -0.748, "G2 cells, % of GMNN control": -2.29}
{"Target gene": "PTGER3", "siRNA no.": 3, "G2 robust z-score": -1.12, "G2 cells, % of GMNN control": -4.92}

Part of the list above, reformatted.
SORBS3 #1
- G2 robust z-score: 3.01
- G2 cells, % of GMNN control: 24.2

SORBS3 #2
- G2 robust z-score: -0.84
- G2 cells, % of GMNN control: -2.94

SORBS3 #3
- G2 robust z-score: -0.828
- G2 cells, % of GMNN control: -2.86

PTGER3 #1
- G2 robust z-score: 0.23
- G2 cells, % of GMNN control: 4.59

More records follow.
{"Target gene": "SPRTN", "siRNA no.": 1, "G2 robust z-score": 0.601, "G2 cells, % of GMNN control": 7.2}
{"Target gene": "SPRTN", "siRNA no.": 2, "G2 robust z-score": -0.419, "G2 cells, % of GMNN control": 0.0173}
{"Target gene": "SPRTN", "siRNA no.": 3, "G2 robust z-score": 1.74, "G2 cells, % of GMNN control": 15.2}
{"Target gene": "PRAM1", "siRNA no.": 1, "G2 robust z-score": -0.837, "G2 cells, % of GMNN control": -2.92}
{"Target gene": "PRAM1", "siRNA no.": 2, "G2 robust z-score": 1.75, "G2 cells, % of GMNN control": 15.3}
{"Target gene": "PRAM1", "siRNA no.": 3, "G2 robust z-score": 1.08, "G2 cells, % of GMNN control": 10.6}
{"Target gene": "EPS8L2", "siRNA no.": 1, "G2 robust z-score": 4.5, "G2 cells, % of GMNN control": 34.7}
{"Target gene": "EPS8L2", "siRNA no.": 2, "G2 robust z-score": 2.98, "G2 cells, % of GMNN control": 23.9}
{"Target gene": "EPS8L2", "siRNA no.": 3, "G2 robust z-score": -1.3, "G2 cells, % of GMNN control": -6.15}
{"Target gene": "LINC00273", "siRNA no.": 1, "G2 robust z-score": -0.56, "G2 cells, % of GMNN control": -0.973}
{"Target gene": "LINC00273", "siRNA no.": 2, "G2 robust z-score": 1.49, "G2 cells, % of GMNN control": 13.5}
{"Target gene": "LINC00273", "siRNA no.": 3, "G2 robust z-score": -0.381, "G2 cells, % of GMNN control": 0.285}
{"Target gene": "PYHIN1", "siRNA no.": 1, "G2 robust z-score": 2.85, "G2 cells, % of GMNN control": 23}
{"Target gene": "PYHIN1", "siRNA no.": 2, "G2 robust z-score": 0.707, "G2 cells, % of GMNN control": 7.94}
{"Target gene": "PYHIN1", "siRNA no.": 3, "G2 robust z-score": -0.826, "G2 cells, % of GMNN control": -2.84}
